Experimental data: patent publication US8877738B2, “Antipathogenic peptides” (priority 2009, dated 2014)
At least one peptide structure holds a part that was inferred or is arguable (an end, a ring closure or a residue).

How the values were obtained:
Format in all cases: cell-based
[1] = system: HSV-2; experiment: HSV-2 entry assay in Vero cells (compound added after virus adsorption); settings: compound added after adsorption (3 h at 4° C.), 2 h at 37° C.; plaques after 48 h
[2] = system: HSV-2; experiment: HSV-2 attachment (adsorption) assay on Vero cells; settings: compound present during adsorption, 3 h at 4° C., 200 PFU; plaques after 48 h
Description: FIG. 3. The dendrimeric peptides SB105 and SB105-A10 inhibit HSV-1 and HSV-2 attachment to Vero cells. Pre-chilled Vero cells were incubated at 4° C. with different concentrations of SB105, SB105-A10, SB104 or heparin and with 200 PFU of HSV-1 or HSV-2. Following virus adsorption (3 h at 4° C.), cells were then washed with cold PBS three times to remove compound and unadsorbed viruses, overlaid with medium containing 1.2% methylcellulose and incubated at 37° C. for 48 h. Viral plaques were then stained and counted, and the mean plaque counts for each peptide concentration expressed as a percentage of the mean count of the controls. The data shown represent means±SD of three independent experiments (error bars).
Following virus adsorption (3 h at 4° C., a condition that is known to allow virus adsorption only), cells were then washed with cold PBS three times to remove compound and unadsorbed viruses, overlaid with medium containing 1.2% methylcellulose and incubated at 37° C. Forty eight hours later, plates were fixed and stained with crystal violet and the viral plaques counted.

[3] = system: HCMV AD169; experiment: HCMV entry assay in HELF cells (compound added after virus adsorption); settings: compound added after adsorption (3 h at 4° C.), 2 h at 37° C.; plaques after 6 days
[4] = system: HCMV AD169; experiment: HCMV attachment (adsorption) assay on HELF cells; settings: compound present during adsorption, 3 h at 4° C., 200 PFU AD169; plaques after 6 days
Description: FIG. 6. HCMV adsorption to target cells is inhibited by SB105 and SB105-A10 dendrimeric peptides. Pre-chilled HELF cells were incubated at 4° C. with different concentrations of SB105, SB105-A10, SB104 or heparin and with 200 PFU of HCMV AD169. Following virus adsorption (3 h at 4° C.), cells were washed with cold PBS three times to remove compound and unadsorbed viruses, overlaid with medium containing 1.2% methylcellulose and incubated at 37° C. for 6 days. Viral plaques were then stained and counted and the mean plaque counts for each peptide concentration were expressed as a percentage of the mean count of the controls. The data shown represent means±SD of three independent experiments (error bars).
After 24 h, they were prechilled to 4° C. and incubated in duplicate at 4° C. with different concentrations of SB105, SB105_A10, SB104 (as negative control for inhibition of viral replication) or heparin (as a positive control for inhibition of viral adsorption) and with 200 PFU of HCMV AD169. Following virus adsorption (3 h at 4° C., a condition that is known to allow virus adsorption only), cells were then washed with cold PBS three times to remove compound and unadsorbed viruses, overlaid with medium containing 1.2% methylcellulose and incubated at 37° C. for 6 days. Plates were then fixed and stained with crystal violet and the viral plaques counted.

Which “effect on HSV-2 entry into Vero cells (plaque counts vs untreated controls)” value [1] does the source give for `CC[C@H](C)[C@H](NC(=O)[C@H](CCCNC(=N)N)NC(=O)[C@@H](NC(=O)[C@H](CCCNC(=N)N)NC(=O)[C@H](CC(C)C)NC(=O)[C@H](CO)NC(=O)[C@H](C)N)C(C)C)C(=O)N[C@@H](CCCCN)C(=O)N[C@@H](CCCCN)C(=O)N[C@@H](CCC(N)=O)C(=O)NCCCC[C@H](NC(=O)[C@H](CCC(N)=O)NC(=O)[C@H](CCCCN)NC(=O)[C@H](CCCCN)NC(=O)[C@@H](NC(=O)[C@H](CCCNC(=N)N)NC(=O)[C@@H](NC(=O)[C@H](CCCNC(=N)N)NC(=O)[C@H](CC(C)C)NC(=O)[C@H](CO)NC(=O)[C@H](C)N)C(C)C)[C@@H](C)CC)C(=O)NCCCC[C@H](NC(=O)[C@H](CCCCNC(=O)[C@H](CCC(N)=O)NC(=O)[C@H](CCCCN)NC(=O)[C@H](CCCCN)NC(=O)[C@@H](NC(=O)[C@H](CCCNC(=N)N)NC(=O)[C@@H](NC(=O)[C@H](CCCNC(=N)N)NC(=O)[C@H](CC(C)C)NC(=O)[C@H](CO)NC(=O)[C@H](C)N)C(C)C)[C@@H](C)CC)NC(=O)[C@H](CCC(N)=O)NC(=O)[C@H](CCCCN)NC(=O)[C@H](CCCCN)NC(=O)[C@@H](NC(=O)[C@H](CCCNC(=N)N)NC(=O)[C@@H](NC(=O)[C@H](CCCNC(=N)N)NC(=O)[C@H](CC(C)C)NC(=O)[C@H](CO)NC(=O)[C@H](C)N)C(C)C)[C@@H](C)CC)C(=O)NCCC(N)=O` [SB105, (ASLRVRIKKQ)4-Lys2-Lys-β-Ala] here?
The value was “do not affect”.

What about the “effect on HSV-2 attachment to Vero cells” value [2] of the same compound?
The value was “prevented attachment”.

And the “effect on HCMV entry into HELF cells (plaque counts vs untreated controls)” value [3]?
Its value is “do not affect”.

And the “effect on HCMV attachment (adsorption) to HELF cells” value [4]?
The value was “potently inhibited the attachment”.
